Laboratory results published in patent US20200109198A1.
Results are given in words; binding and its absence hold for the method and conditions named. Some results given as binding are weak or reduced against the parent protein; the word gives no strength.

Sequences of proteins named here, by UniProt entry; tags and fusion partners are left off. A change or cut given only in a name is not applied to a line headed by its entry.
UniProt P11912: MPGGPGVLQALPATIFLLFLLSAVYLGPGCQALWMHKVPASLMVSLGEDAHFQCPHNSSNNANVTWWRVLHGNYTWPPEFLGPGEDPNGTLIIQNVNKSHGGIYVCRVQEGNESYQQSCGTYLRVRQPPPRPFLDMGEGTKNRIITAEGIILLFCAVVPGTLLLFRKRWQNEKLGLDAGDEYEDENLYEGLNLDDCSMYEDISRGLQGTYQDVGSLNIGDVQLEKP

Assays:
[1] = target: CD79 (UniProt P11912); test: competition ELISA of phage display clones, compared with parent H1L2
[2] = target: CD79 (UniProt P11912); test: confirmatory dilution ELISA of phage display clones
[3] = target: CD79 (UniProt P11912); test: binding kinetics
[4] = target: CD79 (UniProt P11912); test: binding kinetics of full length IgG, Table 2
[5] = target: CD79 (UniProt P11912); test: antigen binding kinetics, Table 3

B1: phage display clone LB511-B6 (antibody, V domains shown)
VH: QVQLVQSGAEVKKPGASVKVSCKASGYAFSYSWMNWVRQAPGQGLEWMGRIYPENGDTNYNGKFKGRVTMTRDTSISTAYMELSRLRSDDTAVYYCARWVYGYPHFDYWGQGTLVTVSS
VL: DVVMTQSPLSLPVTLGQPASISCKSSQSLLDSDGKTYLNWLQQRPGQSPRRLIYLVSKLDSGVPDRFSGSGSGTDFTLKISRVEAEDVGVYYCWQGTHVPFTFGGGTKVEIK
Q: B1 was tested. Which binding [1] did it give?
A: binds

Q: What about the binding [2] of the same binder?
A: binds

B2: phage display clone LB511-F6 (antibody, V domains shown)
VH: QVQLVQSGAEVKKPGASVKVSCKASGYAFSYSWMNWVRQAPGQGLEWMGRIYPENGDTNYNGKFKGRVTMTRDTSISTAYMELSRLRSDDTAVYYCARWVYGYPHFDYWGQGTLVTVSS
VL: DVVMTQSPLSLPVTLGQPASISCKSSQSLLDSDGKTYLNWLQQRPGQSPRRLIYLVSKLDSGVPDRFSGSGSGTDFTLKISRVEAEDVGVYYCWQGTHLPFTFGGGTKVEIK
Q: What does the source list for B2?
A: binding [1]: binds; binding [2]: binds

B3: phage display clone LB511-F11 (antibody, V domains shown)
VH: QVQLVQSGAEVKKPGASVKVSCKASGYAFSYSWMNWVRQAPGQGLEWMGRIYPENGDTNYNGKFKGRVTMTRDTSISTAYMELSRLRSDDTAVYYCARWVYGYPHFDYWGQGTLVTVSS
VL: DVVMTQSPLSLPVTLGQPASISCKSSQSLLDSDGKTYLNWLQQRPGQSPRRLIYLVSKLDSGVPDRFSGSGSGTDFTLKISRVEAEDVGVYYCWQGTHRPFTFGGGTKVEIK
Q: What does the source list for B3?
A: binding [1]: binds; binding [2]: binds

B4: phage display clone LB510-C7 (antibody, V domains shown)
VH: QVQLVQSGAEVKKPGASVKVSCKASGYAFGYSWMNWVRQAPGQGLEWMGRIYPENGDTNYNGKFKGRVTMTRDTSISTAYMELSRLRSDDTAVYYCARWVYGYPHFDYWGQGTLVTVSS
VL: DVVMTQSPLSLPVTLGQPASISCKSSQSLLDSDGKTYLNWLQQRPGQSPRRLIYLVSKLDSGVPDRFSGSGSGTDFTLKISRVEAEDVGVYYCWQGTHFPFTFGGGTKVEIK
Q: With B4 as the binder, how does the binding [1] read?
A: binds

B5: phage display clone LB510-G5 (antibody, V domains shown)
VH: QVQLVQSGAEVKKPGASVKVSCKASGYAFSYSWVNWVRQAPGQGLEWMGRIYPENGDTNYNGKFKGRVTMTRDTSISTAYMELSRLRSDDTAVYYCARWVYGYPHFDYWGQGTLVTVSS
VL: DVVMTQSPLSLPVTLGQPASISCKSSQSLLDSDGKTYLNWLQQRPGQSPRRLIYLVSKLDSGVPDRFSGSGSGTDFTLKISRVEAEDVGVYYCWQGTHFPFTFGGGTKVEIK
Q: For B5, which binding [1] is on record?
A: binds

B6: phage display clone LB512-A7 (antibody, V domains shown)
VH: QVQLVQSGAEVKKPGASVKVSCKASGYAFSYSWMNWVRQAPGQGLEWMGRIYPENGDTNYNGKFKGRVTMTRDTSISTAYMELSRLRSDDTAVYYCARWVYGYPHFDYWGQGTLVTVSS
VL: DVVMTQSPLSLPVTLGLPASISCKSSQSLLDSDGKTYLNWLQQRPGQSPRRLIYLVSKLDSGVPDRFSGSGSGTDFTLKISRVEAEDVGVYYCWQGTHFPFTFGGGTKVEIK
Q: B6 was tested. Which binding [1] did it give?
A: binds

B7: phage display clone LB509-C2 (antibody, V domains shown)
VH: QVQLVQSGAEVKKPGASVKVSCKASGYAFSYSWMNWVRQAPGQGLEWMGRIYPENGDTNYNGKFKGRVTMTRDTSISTAYMELSRLRSDDTAVYYCARWVYGLPHFDYWGQGTLVTVSS
VL: DVVMTQSPLSLPVTLGQPASISCKSSQSLLDSDGKTYLNWLQQRPGQSPRRLIYLVSKLDSGVPDRFSGSGSGTDFTLKISRVEAEDVGVYYCWQGTHFPFTFGGGTKVEIK
Q: For B7, which binding [1] is on record?
A: binds

Q: What about the binding [2] of the same binder?
A: binds

B8: phage display clone LB511-A9 (antibody, V domains shown)
VH: QVQLVQSGAEVKKPGASVKVSCKASGYAFSYSWMNWVRQAPGQGLEWMGRIYPENGDTNYNGKFKGRVTMTRDTSISTAYMELSRLRSDDTAVYYCARWVYGYPHFDYWGQGTLVTVSS
VL: DVVMTQSPLSLPVTLGQPASISCKSSQSLLDSDGKTYLNWLQQRPGQSPRRLIYLVSKLDSGVPDRFSGSGSGTDFTLKISRVEAEDVGVYYCWQGTHIPFTFGGGTKVEIK
Q: Which binding [1] does the source give for B8 here?
A: binds

Q: And the binding [2]?
A: binds

B9: affinity matured antibody LB517/PRI47 (antibody, V domains shown)
VH: QVQLVQSGAEVKKPGASVKVSCKASGYAFSYSWMNWVRQAPGQGLEWMGRIYPENGDTNYNGKFKGRVTMTRDTSISTAYMELSRLRSDDTAVYYCARWVYGLPHFDYWGQGTLVTVSS
VL: DVVMTQSPLSLPVTLGQPASISCKSSQSLLDSDGKTYLNWLQQRPGQSPRRLIYLVSKLDSGVPDRFSGSGSGTDFTLKISRVEAEDVGVYYCWQGTHFPFTFGGGTKVEIK
Q: With B9 as the binder, how does the binding [3] read?
A: binds

Q: What about the binding [4] of the same binder?
A: binds

B10: affinity matured antibody LB495/518 (antibody, V domains shown)
VH: QVQLVQSGAEVKKPGASVKVSCKASGYAFSYSWMNWVRQAPGQGLEWMGRIYPENGDTNYNGKFKGRVTMTRDTSISTAYMELSRLRSDDTAVYYCARWVYGYPHFDYWGQGTLVTVSS
VL: DVVMTQSPLSLPVTLGQPASISCKSSQSLLDSDGKTYLNWLQQRPGQSPRRLIYLVSKLDSGVPDRFSGSGSGTDFTLKISRVEAEDVGVYYCWQGTHIPFTFGGGTKVEIK
Q: Which results are given for B10?
A: binding [3]: binds; binding [4]: binds

B11: affinity matured antibody LB495/519 (antibody, V domains shown)
VH: QVQLVQSGAEVKKPGASVKVSCKASGYAFSYSWMNWVRQAPGQGLEWMGRIYPENGDTNYNGKFKGRVTMTRDTSISTAYMELSRLRSDDTAVYYCARWVYGYPHFDYWGQGTLVTVSS
VL: DVVMTQSPLSLPVTLGQPASISCKSSQSLLDSDGKTYLNWLQQRPGQSPRRLIYLVSKLDSGVPDRFSGSGSGTDFTLKISRVEAEDVGVYYCWQGTHLPFTFGGGTKVEIK
Q: Which results are given for B11?
A: binding [3]: binds; binding [4]: binds

B12: affinity matured antibody LB495/520 (antibody, V domains shown)
VH: QVQLVQSGAEVKKPGASVKVSCKASGYAFSYSWMNWVRQAPGQGLEWMGRIYPENGDTNYNGKFKGRVTMTRDTSISTAYMELSRLRSDDTAVYYCARWVYGYPHFDYWGQGTLVTVSS
VL: DVVMTQSPLSLPVTLGQPASISCKSSQSLLDSDGKTYLNWLQQRPGQSPRRLIYLVSKLDSGVPDRFSGSGSGTDFTLKISRVEAEDVGVYYCWQGTHRPFTFGGGTKVEIK
Q: How did the binding [3] turn out when B12 was run?
A: binds

Q: And the binding [4]?
A: binds

B13: affinity matured antibody LB495/521 (antibody, V domains shown)
VH: QVQLVQSGAEVKKPGASVKVSCKASGYAFSYSWMNWVRQAPGQGLEWMGRIYPENGDTNYNGKFKGRVTMTRDTSISTAYMELSRLRSDDTAVYYCARWVYGYPHFDYWGQGTLVTVSS
VL: DVVMTQSPLSLPVTLGQPASISCKSSQSLLDSDGKTYLNWLQQRPGQSPRRLIYLVSKLDSGVPDRFSGSGSGTDFTLKISRVEAEDVGVYYCWQGTHVPFTFGGGTKVEIK
Q: With B13 as the binder, how does the binding [3] read?
A: binds

Q: What about the binding [4] of the same binder?
A: binds

B14: affinity matured antibody LB517/518 (antibody, V domains shown)
VH: QVQLVQSGAEVKKPGASVKVSCKASGYAFSYSWMNWVRQAPGQGLEWMGRIYPENGDTNYNGKFKGRVTMTRDTSISTAYMELSRLRSDDTAVYYCARWVYGLPHFDYWGQGTLVTVSS
VL: DVVMTQSPLSLPVTLGQPASISCKSSQSLLDSDGKTYLNWLQQRPGQSPRRLIYLVSKLDSGVPDRFSGSGSGTDFTLKISRVEAEDVGVYYCWQGTHIPFTFGGGTKVEIK
Q: With B14 as the binder, how does the binding [3] read?
A: binds

Q: And the binding [4]?
A: binds

B15: affinity matured antibody LB517/520 (antibody, V domains shown)
VH: QVQLVQSGAEVKKPGASVKVSCKASGYAFSYSWMNWVRQAPGQGLEWMGRIYPENGDTNYNGKFKGRVTMTRDTSISTAYMELSRLRSDDTAVYYCARWVYGLPHFDYWGQGTLVTVSS
VL: DVVMTQSPLSLPVTLGQPASISCKSSQSLLDSDGKTYLNWLQQRPGQSPRRLIYLVSKLDSGVPDRFSGSGSGTDFTLKISRVEAEDVGVYYCWQGTHRPFTFGGGTKVEIK
Q: Which results are given for B15?
A: binding [3]: binds; binding [4]: binds

B16: affinity matured antibody LB517/521 (antibody, V domains shown)
VH: QVQLVQSGAEVKKPGASVKVSCKASGYAFSYSWMNWVRQAPGQGLEWMGRIYPENGDTNYNGKFKGRVTMTRDTSISTAYMELSRLRSDDTAVYYCARWVYGLPHFDYWGQGTLVTVSS
VL: DVVMTQSPLSLPVTLGQPASISCKSSQSLLDSDGKTYLNWLQQRPGQSPRRLIYLVSKLDSGVPDRFSGSGSGTDFTLKISRVEAEDVGVYYCWQGTHVPFTFGGGTKVEIK
Q: With B16 as the binder, how does the binding [3] read?
A: binds

Q: What about the binding [4] of the same binder?
A: binds

B17: engineered antibody LB631/519 (antibody, V domains shown)
VH: QVQLVQSGAEVKKPGASVKVSCKASGYAFSYSWMNWVRQAPGQGLEWMGRIYPENGDTNYAGKFKGRVTMTRDTSISTAYMELSRLRSDDTAVYYCARWVYGLPHFDYWGQGTLVTVSS
VL: DVVMTQSPLSLPVTLGQPASISCKSSQSLLDSDGKTYLNWLQQRPGQSPRRLIYLVSKLDSGVPDRFSGSGSGTDFTLKISRVEAEDVGVYYCWQGTHLPFTFGGGTKVEIK
Q: With B17 as the binder, how does the binding [5] read?
A: binds

B18: engineered antibody LB632/519 (antibody, V domains shown)
VH: QVQLVQSGAEVKKPGASVKVSCKASGYAFSYSWMNWVRQAPGQGLEWMGRIYPESGDTNYAGKFKGRVTMTRDTSISTAYMELSRLRSDDTAVYYCARWVYGLPHFDYWGQGTLVTVSS
VL: DVVMTQSPLSLPVTLGQPASISCKSSQSLLDSDGKTYLNWLQQRPGQSPRRLIYLVSKLDSGVPDRFSGSGSGTDFTLKISRVEAEDVGVYYCWQGTHLPFTFGGGTKVEIK
Q: Which binding [5] does the source give for B18 here?
A: binds

B19: engineered antibody LB630/519 (antibody, V domains shown)
VH: QVQLVQSGAEVKKPGASVKVSCKASGYAFSYSWMNWVRQAPGQGLEWMGRIYPESGDTNYNGKFKGRVTMTRDTSISTAYMELSRLRSDDTAVYYCARWVYGLPHFDYWGQGTLVTVSS
VL: DVVMTQSPLSLPVTLGQPASISCKSSQSLLDSDGKTYLNWLQQRPGQSPRRLIYLVSKLDSGVPDRFSGSGSGTDFTLKISRVEAEDVGVYYCWQGTHLPFTFGGGTKVEIK
Q: For B19, which binding [5] is on record?
A: binds

B20: phage display clone LB509-G2 (antibody, V domains shown)
VH: QVQLVQSGAEVKKPGASVKVSCKASGYAFSYSWMNWVRQAPGQGLEWMGRIYPENGDTNYNGKFKGRVTMTRDTSISTAYMELSRLRSDDTAVYYCARWVYGYPHLDYWGQGTLVTVSS
VL: DVVMTQSPLSLPVTLGQPASISCKSSQSLLDSDGKTYLNWLQQRPGQSPRRLIYLVSKLDSGVPDRFSGSGSGTDFTLKISRVEAEDVGVYYCWQGTHFPFTFGGGTKVEIK
Q: How did the binding [1] turn out when B20 was run?
A: binds
